Experimental data as given in the supplement of paper PMC6411743.
± gives the standard deviation of the averaged measurements. The list shows a part of the results, in another mix than the full data.

Legend:
Assay in all cases: NP40-soluble protein abundance relative to vehicle (solubility fold change) (ratio); higher = more soluble protein in presence of ATP
[1] = target: T1, PGLS (UniProt O95336)
T1 sequence (whole entry): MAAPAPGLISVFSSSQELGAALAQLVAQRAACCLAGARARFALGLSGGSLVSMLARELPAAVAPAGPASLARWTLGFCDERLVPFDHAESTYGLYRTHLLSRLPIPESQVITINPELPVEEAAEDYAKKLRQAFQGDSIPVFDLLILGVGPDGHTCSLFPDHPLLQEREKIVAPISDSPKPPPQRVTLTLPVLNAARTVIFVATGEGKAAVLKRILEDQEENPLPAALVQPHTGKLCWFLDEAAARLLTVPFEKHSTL
Outline: (§1)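 Crude Jurkat lysate, prepared by Dounce homogenisation, was exposed to eight concentrations from 0.1 to 10 mM for 10 min at room temperature and then 3 min at 37 °C. Solubilisation used 0.8% NP40 with benzonase for 60 min at 4 °C, followed by ultracentrifugation and TMT labelling of the supernatant for LC-MS/MS. After vsn normalisation of intensities, each value is the fold change against the detergent-processed vehicle within each replicate, across three independent experiments.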

[2] = target: T2, SEC24A (UniProt O95486)
T2 sequence (whole entry): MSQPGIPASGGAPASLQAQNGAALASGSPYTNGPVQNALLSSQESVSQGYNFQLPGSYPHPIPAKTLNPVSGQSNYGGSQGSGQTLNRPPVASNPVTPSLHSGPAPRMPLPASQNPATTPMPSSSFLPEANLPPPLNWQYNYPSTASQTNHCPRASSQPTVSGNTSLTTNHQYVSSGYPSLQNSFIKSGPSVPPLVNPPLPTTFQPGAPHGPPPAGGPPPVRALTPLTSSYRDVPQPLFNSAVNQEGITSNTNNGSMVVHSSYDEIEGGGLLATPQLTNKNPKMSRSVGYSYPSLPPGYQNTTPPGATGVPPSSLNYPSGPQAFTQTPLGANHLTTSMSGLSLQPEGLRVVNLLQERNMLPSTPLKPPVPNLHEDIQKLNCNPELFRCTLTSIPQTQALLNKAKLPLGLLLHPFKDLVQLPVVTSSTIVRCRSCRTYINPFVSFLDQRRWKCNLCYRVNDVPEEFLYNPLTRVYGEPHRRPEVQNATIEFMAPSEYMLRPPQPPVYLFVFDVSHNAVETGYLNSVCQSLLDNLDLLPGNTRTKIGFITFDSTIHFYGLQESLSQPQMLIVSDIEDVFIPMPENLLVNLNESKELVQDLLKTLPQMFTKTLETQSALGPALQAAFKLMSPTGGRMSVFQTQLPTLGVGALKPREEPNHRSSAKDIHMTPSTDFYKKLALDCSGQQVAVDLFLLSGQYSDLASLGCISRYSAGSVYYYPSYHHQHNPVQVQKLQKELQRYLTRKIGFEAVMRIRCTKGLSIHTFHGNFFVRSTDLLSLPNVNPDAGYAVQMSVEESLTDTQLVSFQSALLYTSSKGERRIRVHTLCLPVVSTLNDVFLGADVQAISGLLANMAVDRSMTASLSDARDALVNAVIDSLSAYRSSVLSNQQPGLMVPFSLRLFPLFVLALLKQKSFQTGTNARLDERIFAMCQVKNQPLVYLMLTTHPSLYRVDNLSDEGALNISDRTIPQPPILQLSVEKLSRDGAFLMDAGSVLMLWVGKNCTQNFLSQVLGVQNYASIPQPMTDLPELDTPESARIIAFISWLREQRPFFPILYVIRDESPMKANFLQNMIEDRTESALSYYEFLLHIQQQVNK
Outline: as §1

[3] = target: T3, USP1 (UniProt O94782)
T3 sequence (whole entry): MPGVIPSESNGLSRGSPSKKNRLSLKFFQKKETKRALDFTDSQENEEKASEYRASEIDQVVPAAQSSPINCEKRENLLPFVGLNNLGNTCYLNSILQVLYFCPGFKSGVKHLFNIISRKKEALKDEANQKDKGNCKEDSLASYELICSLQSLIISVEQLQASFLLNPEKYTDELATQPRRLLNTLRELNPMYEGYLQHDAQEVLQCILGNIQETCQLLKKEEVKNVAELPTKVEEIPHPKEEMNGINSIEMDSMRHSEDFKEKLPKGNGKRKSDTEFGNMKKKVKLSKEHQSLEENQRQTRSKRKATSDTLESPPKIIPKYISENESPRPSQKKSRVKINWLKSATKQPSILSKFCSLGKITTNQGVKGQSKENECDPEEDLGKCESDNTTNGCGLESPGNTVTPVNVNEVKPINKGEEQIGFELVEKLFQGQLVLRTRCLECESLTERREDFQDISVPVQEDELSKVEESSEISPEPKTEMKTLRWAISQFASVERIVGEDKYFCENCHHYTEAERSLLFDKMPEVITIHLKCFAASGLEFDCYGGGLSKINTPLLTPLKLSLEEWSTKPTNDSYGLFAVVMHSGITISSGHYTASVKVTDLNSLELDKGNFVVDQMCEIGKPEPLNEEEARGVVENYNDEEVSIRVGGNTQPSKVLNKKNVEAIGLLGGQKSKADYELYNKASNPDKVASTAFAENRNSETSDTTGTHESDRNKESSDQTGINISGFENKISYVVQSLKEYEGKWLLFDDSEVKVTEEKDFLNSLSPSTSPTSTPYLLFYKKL
Outline: as §1

[4] = target: T4, UniProt O60671 and related entries
T4 sequence (whole entry): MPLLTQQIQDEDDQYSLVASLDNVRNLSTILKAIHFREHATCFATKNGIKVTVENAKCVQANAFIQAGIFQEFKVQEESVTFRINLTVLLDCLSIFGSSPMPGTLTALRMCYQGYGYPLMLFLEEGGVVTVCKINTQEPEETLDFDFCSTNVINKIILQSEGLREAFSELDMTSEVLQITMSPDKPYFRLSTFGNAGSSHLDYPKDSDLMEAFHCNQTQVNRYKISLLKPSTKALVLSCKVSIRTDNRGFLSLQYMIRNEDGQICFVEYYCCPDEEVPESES
Outline: as §1

[5] = target: T5, UniProt O75431 and related entries
T5 sequence (whole entry): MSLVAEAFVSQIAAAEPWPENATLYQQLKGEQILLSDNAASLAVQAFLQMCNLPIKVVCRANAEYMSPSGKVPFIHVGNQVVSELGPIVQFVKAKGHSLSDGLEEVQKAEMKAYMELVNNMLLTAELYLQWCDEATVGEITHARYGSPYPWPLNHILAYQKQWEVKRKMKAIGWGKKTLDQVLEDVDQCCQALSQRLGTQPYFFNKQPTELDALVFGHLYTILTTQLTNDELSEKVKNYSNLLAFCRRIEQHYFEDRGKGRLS
Outline: as §1

Nc1ncnc2c1ncn2[C@@H]1O[C@H](COP(=O)(O)OP(=O)(O)OP(=O)(O)O)[C@@H](O)[C@H]1O [adenosine triphosphate]
NP40-soluble protein abundance ([1]; concentration: 6mM): 0.943 ± 0.046
NP40-soluble protein abundance ([1]; concentration: 8mM): 0.964 ± 0.039
NP40-soluble protein abundance ([1]; concentration: 10mM): 0.917 ± 0.066
NP40-soluble protein abundance ([2]; concentration: 1mM): 1.05 ± 0.058
NP40-soluble protein abundance ([2]; concentration: 2mM): 1.03 ± 0.08
NP40-soluble protein abundance ([2]; concentration: 4mM): 1.03 ± 0.079
NP40-soluble protein abundance ([2]; concentration: 6mM): 0.979 ± 0.072
NP40-soluble protein abundance ([2]; concentration: 8mM): 1.01 ± 0.044
NP40-soluble protein abundance ([2]; concentration: 10mM): 0.979 ± 0.054
NP40-soluble protein abundance ([3]; concentration: 1mM): 0.94 ± 0.064
NP40-soluble protein abundance ([3]; concentration: 2mM): 0.969 ± 0.02
NP40-soluble protein abundance ([3]; concentration: 4mM): 1.01 ± 0.021
NP40-soluble protein abundance ([3]; concentration: 6mM): 0.979 ± 0.037
NP40-soluble protein abundance ([3]; concentration: 8mM): 0.968 ± 0.013
NP40-soluble protein abundance ([3]; concentration: 10mM): 0.988 ± 0.026
NP40-soluble protein abundance ([4]; concentration: 1mM): 1.1 ± 0.09
NP40-soluble protein abundance ([4]; concentration: 2mM): 1.09 ± 0.039
NP40-soluble protein abundance ([4]; concentration: 4mM): 1.09 ± 0.22
NP40-soluble protein abundance ([4]; concentration: 6mM): 1.05 ± 0.11
NP40-soluble protein abundance ([4]; concentration: 8mM): 1.07 ± 0.081
NP40-soluble protein abundance ([4]; concentration: 10mM): 1.06 ± 0.034
NP40-soluble protein abundance ([5]; concentration: 1mM): 1.01 ± 0.059
NP40-soluble protein abundance ([5]; concentration: 2mM): 0.994 ± 0.042
NP40-soluble protein abundance ([5]; concentration: 4mM): 0.934 ± 0.037
NP40-soluble protein abundance ([5]; concentration: 6mM): 0.914 ± 0.024
NP40-soluble protein abundance ([5]; concentration: 8mM): 0.986 ± 0.053
NP40-soluble protein abundance ([5]; concentration: 10mM): 0.906 ± 0.021
